# Structures can show the parent of a compound that is named as a salt. The list shows a part of the results. Repeats are few or missing, and single values can be far off.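 Primary human fetal astrocytes engulfed labelled rat cortical synaptosomes, measured as a red/green ratio corrected for calcein live-cell signal and scaled to the plate median. Toxicity meant calcein falling over 30%; decreased phagocytosis meant below 70% of median above 5 µM.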
# System: Human fetal astrocytes
# Assay: loss of total cells relative to no-compound high-control median (toxicity); higher = more toxic (fewer cells)
# Conditions: 22.22 µM; 24 h
row,SMILES,loss of total cells [%]
1,Cc1cc2c(cc1Cl)N(C(=O)Nc1cccc3ncccc13)CC2,15.9
2,CNCC[C@@H](Oc1ccccc1C)c1ccccc1 [Tomoxetine],-0.8
3,CCSC(N)=Nc1ccc(C(F)(F)F)cc1 [TFPI hydrochloride],-27.2
4,NCCCCNS(=O)(=O)c1ccc2c(Cl)cccc2c1,-1.1
5,CC1CCN(CC[C@H]2CCCN2S(=O)(=O)c2cccc(O)c2)CC1,-12.3
6,OC[C@H]1O[C@@H](n2cnc3c(Nc4ccccc4)ncnc32)[C@H](O)[C@@H]1O [N6-Phenyladenosine],-36.2
7,CNCC[C@H](Oc1ccc(C(F)(F)F)cc1)c1ccccc1 [S-(+)-Fluoxetine hydrochloride],4.8
8,Nc1nc(Cl)nc2c1ncn2[C@@H]1O[C@H](CO)[C@@H](O)[C@H]1O [2-Chloroadenosine],5.6
9,C#C[C@]1(O)CC[C@H]2[C@@H]3CCC4=Cc5oncc5C[C@]4(C)[C@H]3CC[C@@]21C [Danazol],2.4
10,N#C/C(=C\c1ccc(O)c(O)c1)C(=O)c1ccc(O)c(O)c1 [Tyrphostin AG 538],-12.3
11,NCC(O)c1ccc(O)c(O)c1 (racemic) [(±)-Norepinephrine (+)bitartrate],13.9
12,CN1CCN(CCCN2c3ccccc3Sc3ccc(Cl)cc32)CC1 [Prochlorperazine dimaleate],29.6
13,CCOC(=O)c1cnc2c(cnn2CC)c1NN=C(C)C [Etazolate hydrochloride],-8.8
14,NC/C=C/C(=O)O [(E)-4-amino-2-butenoic acid],-21.4
15,CCn1nc(C(=O)O)c(=O)c2cc3c(cc21)OCO3 [Cinoxacin],4.1
16,CC(C)(C)[C@]1(O)CCN2C[C@H]3c4ccccc4CCc4cccc(c43)[C@@H]2C1 [(+)-Butaclamol hydrochloride],-20.8
17,CCCCCC(O)CCCC(=O)O (stereo not given) [5-hydroxydecanoic acid sodium],-4.8
18,CC(C)C1C2CCC(C2)C1N (stereo not given),1.9
19,CC1(C)CCC2=C(O1)c1ccccc1C(=O)C2=O [beta-Lapachone],24.3
20,Brc1c(NC2=NCCN2)ccc2nccnc12,-35.4

# Grouped by structure: the entries above with a CF3 group.
row,SMILES,loss of total cells [%]
3,CCSC(N)=Nc1ccc(C(F)(F)F)cc1 [TFPI hydrochloride],-27.2
7,CNCC[C@H](Oc1ccc(C(F)(F)F)cc1)c1ccccc1 [S-(+)-Fluoxetine hydrochloride],4.8

# Going on with the list.

row,SMILES,loss of total cells [%]
1,"O=C1NC(=O)C(c2ccccc2)(c2ccccc2)N1 [5,5-Diphenylhydantoin]",-2.4
2,CN(C)c1ccc(/C=C2/C(=O)Nc3ccccc32)cc1,15.6
3,CC(=O)NC(C(=O)O)C(C)(C)SN=O (stereo not given) [S-Nitroso-N-acetylpenicillamine],11.2
4,COc1ccccc1N1CCN(CCN2C(=O)CC3(CCCC3)CC2=O)CC1 [BMY 7378 dihydrochloride],-3.4
5,CN1[C@@H]2CC[C@H]1CC(OC(=O)c1c[nH]c3ccccc13)C2 (stereo not given in full) [3-Tropanyl-indole-3-carboxylate hydrochloride],-10.7
6,"N=C(N)SCCc1ccc(CCSC(=N)N)cc1 [1,4-PBIT dihydrobromide]",-9.9
7,CC(CCc1ccc(O)cc1)NCCc1ccc(O)c(O)c1 (stereo not given) [Dobutamine hydrochloride],-11.2
8,CC[N+](C)(C)Cc1ccccc1Br [Bretylium tosylate],4.1
9,N#C/C(=C\c1ccc(O)c(O)c1)C(=O)Nc1ccccc1 [Tyrphostin AG 494],-4.1
10,Brc1ccc([C@H]2CN3CCSC3=N2)cc1 [S(-)-p-Bromotetramisole oxalate],2.6
11,"CN1C2CCC1CC(NC(=O)c1nn(C)c3ccccc13)C2 (stereo not given) [LY-278,584 maleate]",18.7
12,C=C[C@H]1CN2CC[C@H]1C[C@H]2[C@H](O)c1ccnc2ccc(OC)cc12 [Quinine sulfate],-31.3
13,"NCCCCCCCCCCN [1,10-Diaminodecane]",13.6
14,Cl.N[C@@H](CCC(=O)O)C(=O)O [L-Glutamic acid hydrochloride],2.4
15,CCC(=O)c1ccc2c(c1)N(CCCN(C)C)c1ccccc1S2 [Propionylpromazine hydrochloride],6.6
16,NC(=O)OCC(COC(N)=O)c1ccccc1 [Felbamate],-4.8
17,CNC(=O)c1cc2c(cn1)[nH]c1ccccc12 [N-Methyl-beta-carboline-3-carboxamide],-10.4
18,CCCCCCCCCC(=O)NC(CN1CCOCC1)[C@H](O)c1ccccc1 (mixture of isomers),-20.6
19,COc1cc2c(cc1OC)-c1c/c(=N\c3c(C)cc(C)cc3C)n(C)c(=O)n1CC2 [Trequinsin hydrochloride],-0.8
20,COC1(C2=NCCN2)COc2ccccc2O1 (stereo not given),-6.6

# Reference: the supplement of paper PMC10689618
